We go through 40 sequences from paper PMC7862700.

The other results are listed elsewhere or left out. The exact form of the protein is not confirmed.

This assay addresses T1, ELF2 (UniProt Q15723).
T1 sequence: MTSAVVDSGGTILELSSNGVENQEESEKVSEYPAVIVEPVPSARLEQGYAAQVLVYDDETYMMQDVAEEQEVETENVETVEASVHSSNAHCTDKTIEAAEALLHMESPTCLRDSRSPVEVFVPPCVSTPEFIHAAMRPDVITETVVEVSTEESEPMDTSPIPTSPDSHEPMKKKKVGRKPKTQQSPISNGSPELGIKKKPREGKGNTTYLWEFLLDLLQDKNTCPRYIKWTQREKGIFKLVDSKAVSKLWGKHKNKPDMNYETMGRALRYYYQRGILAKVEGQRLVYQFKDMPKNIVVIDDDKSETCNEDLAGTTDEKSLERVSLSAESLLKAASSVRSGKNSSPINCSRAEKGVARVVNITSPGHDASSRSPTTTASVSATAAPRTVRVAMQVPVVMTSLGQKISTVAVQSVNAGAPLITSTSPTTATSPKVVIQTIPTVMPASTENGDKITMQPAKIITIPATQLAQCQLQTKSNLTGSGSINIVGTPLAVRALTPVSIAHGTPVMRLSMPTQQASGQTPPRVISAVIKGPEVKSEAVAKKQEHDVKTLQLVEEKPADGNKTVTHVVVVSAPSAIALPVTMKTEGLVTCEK
The experiment in a line: DAPPL (digital affinity profiling via proximity ligation, sequencing). The note with it: 10 mM Tris-HCl pH 7.5, 50 mM NaCl, 1 mM DTT, 4% glycerol, room temperature, 30 min; GST-TFs on glutathione beads, 16-mer random dsDNA library, 0.1% …; high values mean tight binding; double strand, one strand shown; scale: fold enrichment (6-mer frequency, TF over GST control).
ATTGAA showed a binding signal of 1.05.

The sequence CTTCCT showed a binding signal of 4.81.

Take GGCTCT: the binding signal came out at 1.28.

In the case of ATTTCC, the binding signal turned out to be 5.82.

Sequence TCTGTC displayed a binding signal of 1.1.

In turn, GACCTT displayed a binding signal of 1.51.

CCCACG gave a binding signal of 1.11.

In the case of TCCCTA, the binding signal was found to be 1.31.

The sequence CGATCG had a binding signal of 0.989.

Regarding TTGCGC, the binding signal came out at 1.08.

In the case of TACTAC, the binding signal was 1.35.

GATGGC: the binding signal turned out to be 1.29.

Sequence TGATGG gave a binding signal of 1.2.

With CTCCTC, the binding signal was determined as 1.31.

Sequence CATCCC had a binding signal of 1.22.

GTACAT had a binding signal of 1.32.

For GTAACT, the binding signal was determined as 1.23.

The sequence TTCGTT showed a binding signal of 1.32.

Sequence CTTACG yielded a binding signal of 1.04.

In turn, GAATAC returned a binding signal of 1.04.

For the sequence GAACCT, the binding signal came out at 1.15.

Sequence AAAGAA came in with a binding signal of 1.26.

Regarding GCTCGC, the binding signal worked out at 1.35.

For CTAAGA, the binding signal was found to be 1.14.

The sequence ACTACC showed a binding signal of 1.91.

Take TACCAC: the binding signal was 1.2.

As for ATCCTG, the binding signal stood at 1.48.

On to TTAAGT, for which the binding signal was determined as 1.19.

Consider ACCCGC, for which the binding signal is 1.21.

Sequence TAACGA returned a binding signal of 1.07.

CGTTCA came in with a binding signal of 1.09.

As to CTTCTG, the binding signal was 1.32.

The sequence TGCTAT returned a binding signal of 1.37.

CACTCG gave a binding signal of 1.05.

Regarding TTGATG, the binding signal turned out to be 1.49.

Turning to TCCTAC, the binding signal stood at 1.53.

The sequence ACAAGC came in with a binding signal of 1.07.

Sequence ATAAAT came in with a binding signal of 1.2.

TTATCA had a binding signal of 1.08.

The sequence TAACTC yielded a binding signal of 1.14.
